According to PMC4231769:
These are yes or no findings as the source states them, for the method shown.

Chains of the proteins cited; added tags and fusions are not shown. Residues count along the entry.
UniProt Q9UBT6, residues 19-526: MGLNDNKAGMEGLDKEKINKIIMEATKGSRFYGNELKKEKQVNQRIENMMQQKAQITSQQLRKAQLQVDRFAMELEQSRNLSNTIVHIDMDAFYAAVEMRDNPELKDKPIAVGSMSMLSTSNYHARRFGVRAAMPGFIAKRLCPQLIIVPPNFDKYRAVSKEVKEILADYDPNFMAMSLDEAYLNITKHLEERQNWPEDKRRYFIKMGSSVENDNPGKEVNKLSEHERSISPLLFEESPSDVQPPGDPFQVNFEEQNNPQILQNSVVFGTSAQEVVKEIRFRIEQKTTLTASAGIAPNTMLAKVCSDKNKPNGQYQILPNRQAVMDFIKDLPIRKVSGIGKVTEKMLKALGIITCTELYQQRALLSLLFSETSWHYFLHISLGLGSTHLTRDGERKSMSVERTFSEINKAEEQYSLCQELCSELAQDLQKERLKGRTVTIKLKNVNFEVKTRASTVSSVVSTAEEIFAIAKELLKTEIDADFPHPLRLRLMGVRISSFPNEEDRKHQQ
UniProt Q14191, residues 500-949: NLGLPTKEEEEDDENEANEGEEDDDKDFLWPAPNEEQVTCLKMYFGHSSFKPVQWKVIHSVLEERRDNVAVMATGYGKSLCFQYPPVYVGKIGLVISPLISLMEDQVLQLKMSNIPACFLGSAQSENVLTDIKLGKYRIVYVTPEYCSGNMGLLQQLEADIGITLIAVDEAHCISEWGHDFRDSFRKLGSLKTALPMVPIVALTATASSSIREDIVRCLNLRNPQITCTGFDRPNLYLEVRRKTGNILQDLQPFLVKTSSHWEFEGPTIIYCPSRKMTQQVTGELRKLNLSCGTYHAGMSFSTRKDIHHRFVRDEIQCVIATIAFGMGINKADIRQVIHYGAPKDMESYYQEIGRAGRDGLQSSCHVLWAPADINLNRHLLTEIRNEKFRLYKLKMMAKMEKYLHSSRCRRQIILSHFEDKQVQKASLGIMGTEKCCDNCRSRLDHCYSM

Target: GST-tagged hpol κ^19-526 (human DNA polymerase kappa catalytic core) (human) (UniProt Q9UBT6)
Experiment: pull-down; GST-hpol κ^19-526 on glutathione Sepharose beads (~1200 pmol), WRN construct 1 μM (~500 pmol) in 500 μl; 25 mM HEPES pH 7.5, 0.1 M NaCl, 10% glycerol, 5 mM β-ME; 16 h at 4°C; Coomassie-stained SDS-PAGE; specific binding = fraction bound to GST-hpol κ beads divided by fraction bound to GST-coated beads; both purified

- binding: no binding (tested: 1 μM)
Substance: WRN^500-949 ATPase domain (from UniProt Q14191 500-949) (domain or fragment)
